Data published in paper PMC10948582.
No constants are given. Whether binding was seen depends on the method and setting. In cells and extracts the contact can be indirect. Some entries that bind do so weakly or less than the wild type. Tags and fused reporters may be left off the sequences shown.

Protein sequences, listed by entry. Tags and fused reporters are not part of them. Residues count along the entry.
UniProt P01033, residues 24-207: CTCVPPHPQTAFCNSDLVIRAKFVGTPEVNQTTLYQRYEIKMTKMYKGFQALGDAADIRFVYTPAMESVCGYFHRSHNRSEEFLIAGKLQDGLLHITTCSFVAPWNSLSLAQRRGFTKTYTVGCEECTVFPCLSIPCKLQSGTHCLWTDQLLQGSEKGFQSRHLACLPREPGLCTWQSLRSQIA

Target: GST-TIMP-1 protein (tissue inhibitor of metalloproteinase 1 fused to GST) (UniProt P01033)
Assay: pull-down; GST-TIMP-1 from BL21 as bait, Myc-GnT-V made in HEK293T cells as prey; Pierce GST kit; detection by western blot; only the target purified

- binding: binds
B1: Myc-GnT-V protein (N-acetylglucosaminyltransferase V) (enzyme, UniProt Q09328 1-741)
chain: MALFTPWKLSSQKLGFFLVTFGFIWGMMLLHFTIQQRTQPESSSMLREQILDLSKRYIKALAEENRNVVDGPYAGVMTAYDLKKTLAVLLDNILQRIGKLESKVDNLVVNGTGTNSTNSTTAVPSLVALEKINVADIINGAQEKCVLPPMDGYPHCEGKIKWMKDMWRSDPCYADYGVDGSTCSFFIYLSEVENWCPHLPWRAKNPYEEADHNSLAEIRTDFNILYSMMKKHEEFRWMRLRIRRMADAWIQAIKSLAEKQNLEKRKRKKVLVHLGLLTKESGFKIAETAFSGGPLGELVQWSDLITSLYLLGHDIRISASLAELKEIMKKVVGNRSGCPTVGDRIVELIYIDIVGLAQFKKTLGPSWVHYQCMLRVLDSFGTEPEFNHANYAQSKGHKTPWGKWNLNPQQFYTMFPHTPDNSFLGFVVEQHLNSSDIHHINEIKRQNQSLVYGKVDSFWKNKKIYLDIIHTYMEVHATVYGSSTKNIPSYVKNHGILSGRDLQFLLRETKLFVGLGFPYEGPAPLEAIANGCAFLNPKFNPPKSSKNTDFFIGKPTLRELTSQHPYAEVFIGRPHVWTVDLNNQEEVEDAVKAILNQKIEPYMPYEFTCEGMLQRINAFIEKQDFCHGQVMWPPLSALQVKLAEPGQSCKQVCQESQLICEPSFFQHLNKDKDMLKYKVTCQSSELAKDILVPSFDPKNKHCVFQGDLLLFSCAGAHPRHQRVCPCRDFIKGQVALCKDCL
